# Experimental data as given in the supplement of paper PMC8728848.
# Some of the results follow.
# What was measured:
# Test in all cases: glycan array binding signal (z-score within array); higher = stronger binding
# Settings in all cases: glycan notation: IUPAC condensed, linker removed
# [1] = target: Fuc(a1-2)[GalNAc(b1-3)]Gal
# Method in brief: (§1)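 Negative Z-scores can be read as non-binding. The Z-score is calculated within each array and then averaged across arrays of one protein sequence at different concentrations or buffers and across linkers. Arrays, 3228 in all, were curated from the Consortium for Functional Glycomics database and kept only where the protein sequence was available.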
# [2] = target: Fuc(a1-3)GlcNAc
# Method in brief: as §1
# [3] = target: Fuc(a1-3)[Gal(b1-4)]Glc6S
# Method in brief: as §1
# [4] = target: Fuc(a1-3)[Gal(b1-4)]GlcNAc
# Method in brief: as §1
# [5] = target: Fuc(a1-3)[Gal(b1-4)]GlcNAc(b1-2)Man
# Method in brief: as §1
# [6] = target: Fuc(a1-3)[Gal(b1-4)]GlcNAc(b1-2)Man(a1-3)[Fuc(a1-3)[Gal(b1-4)]GlcNAc(b1-2)Man(a1-6)]Man(b1-4)GlcNAc(b1-4)GlcNAc
# Method in brief: as §1
# [7] = target: Fuc(a1-3)[Gal(b1-4)]GlcNAc(b1-2)Man(a1-3)[Fuc(a1-3)[Gal(b1-4)]GlcNAc(b1-2)Man(a1-6)]Man(b1-4)GlcNAc(b1-4)[Fuc(a1-6)]GlcNAc
# Method in brief: as §1
# [8] = target: Fuc(a1-3)[Gal(b1-4)]GlcNAc(b1-3)Gal(b1-3)[Fuc(a1-4)]GlcNAc
# Method in brief: as §1
# [9] = target: Fuc(a1-3)[Gal(b1-4)]GlcNAc(b1-3)Gal(b1-4)[Fuc(a1-3)]GlcNAc
# Method in brief: as §1
# [10] = target: Fuc(a1-3)[Gal(b1-4)]GlcNAc(b1-3)Gal(b1-4)[Fuc(a1-3)]GlcNAc(b1-3)Gal(b1-4)[Fuc(a1-3)]GlcNAc
# Method in brief: as §1
# [11] = target: Fuc(a1-3)[Gal(b1-4)]GlcNAc(b1-3)GalNAc
# Method in brief: as §1
# [12] = target: Fuc(a1-3)[Gal(b1-4)]GlcNAc(b1-6)GalNAc
# Method in brief: as §1
# [13] = target: Fuc(a1-3)[Gal(b1-4)]GlcNAc(b1-6)[Gal(b1-3)GlcNAc(b1-3)]Gal(b1-4)Glc
# Method in brief: as §1
# [14] = target: Fuc(a1-3)[Gal(b1-4)]GlcNAc6S
# Method in brief: as §1
# [15] = target: Fuc(a1-3)[Gal3S(b1-4)]Glc
# Method in brief: as §1
# [16] = target: Fuc(a1-3)[Gal3S(b1-4)]GlcNAc
# Method in brief: as §1
# [17] = target: Fuc(a1-3)[Gal3S(b1-4)]GlcNAc6S
# Method in brief: as §1
# [18] = target: Fuc(a1-3)[GalNAc(b1-4)]GlcNAc
# Method in brief: as §1
# [19] = target: Fuc(a1-3)[GalNAc(b1-4)]GlcNAc6S
# Method in brief: as §1
# [20] = target: Fuc(a1-4)GlcNAc
# Method in brief: as §1
# [21] = target: Fuc(b1-3)GlcNAc
# Method in brief: as §1
# [22] = target: Gal(a1-2)Gal
# Method in brief: as §1
# [23] = target: Gal(a1-3)Gal
# Method in brief: as §1
# [24] = target: Gal(a1-3)Gal(b1-3)GlcNAc
# Method in brief: as §1
# [25] = target: Gal(a1-3)Gal(b1-3)GlcNAc(b1-2)Man
# Method in brief: as §1
# [26] = target: Gal(a1-3)Gal(b1-3)GlcNAc(b1-2)Man(a1-3)[Gal(a1-3)Gal(b1-3)GlcNAc(b1-2)Man(a1-6)]Man(b1-4)GlcNAc(b1-4)GlcNAc
# Method in brief: as §1
# [27] = target: Gal(a1-3)Gal(b1-3)GlcNAc(b1-3)GalNAc
# Method in brief: as §1
# [28] = target: Gal(a1-3)Gal(b1-3)GlcNAc(b1-6)GalNAc
# Method in brief: as §1
# [29] = target: Gal(a1-3)Gal(b1-3)[Fuc(a1-4)]GlcNAc(b1-2)Man(a1-3)[Gal(a1-3)Gal(b1-3)[Fuc(a1-4)]GlcNAc(b1-2)Man(a1-6)]Man(b1-4)GlcNAc(b1-4)GlcNAc
# Method in brief: as §1
# [30] = target: Gal(a1-3)Gal(b1-4)Glc
# Method in brief: as §1
# [31] = target: Gal(a1-3)Gal(b1-4)GlcNAc
# Method in brief: as §1
# [32] = target: Gal(a1-3)Gal(b1-4)GlcNAc(b1-2)Man
# Method in brief: as §1
# [33] = target: Gal(a1-3)Gal(b1-4)GlcNAc(b1-2)Man(a1-3)[Gal(a1-3)Gal(b1-4)GlcNAc(b1-2)Man(a1-6)]Man(b1-4)GlcNAc(b1-4)GlcNAc
# Method in brief: as §1
# [34] = target: Gal(a1-3)Gal(b1-4)GlcNAc(b1-3)GalNAc
# Method in brief: as §1
# [35] = target: Gal(a1-3)Gal(b1-4)GlcNAc(b1-6)GalNAc
# Method in brief: as §1
# [36] = target: Gal(a1-3)Gal(b1-4)[Fuc(a1-3)]GlcNAc
# Method in brief: as §1
# [37] = target: Gal(a1-3)Gal(b1-4)[Fuc(a1-3)]GlcNAc(b1-2)Man(a1-3)[Gal(a1-3)Gal(b1-4)[Fuc(a1-3)]GlcNAc(b1-2)Man(a1-6)]Man(b1-4)GlcNAc(b1-4)GlcNAc
# Method in brief: as §1
# [38] = target: Gal(a1-3)GalNAc
# Method in brief: as §1
# [39] = target: Gal(a1-3)[Gal(a1-4)]Gal(b1-4)GlcNAc
# Method in brief: as §1
# [40] = target: Gal(a1-4)Gal(b1-3)GlcNAc(b1-2)Man(a1-3)[Gal(a1-4)Gal(b1-3)GlcNAc(b1-2)Man(a1-6)]Man(b1-4)GlcNAc(b1-4)GlcNAc
# Method in brief: as §1
# [41] = target: Gal(a1-4)Gal(b1-4)Glc
# Method in brief: as §1
# [42] = target: Gal(a1-4)Gal(b1-4)GlcNAc
# Method in brief: as §1
# [43] = target: Gal(a1-4)Gal(b1-4)GlcNAc(b1-2)Man(a1-3)[Gal(a1-4)Gal(b1-4)GlcNAc(b1-2)Man(a1-6)]Man(b1-4)GlcNAc(b1-4)GlcNAc
# Method in brief: as §1
# [44] = target: Gal(a1-4)Gal(b1-4)GlcNAc(b1-3)Gal(b1-4)Glc
# Method in brief: as §1
# [45] = target: Gal(a1-4)GlcNAc
# Method in brief: as §1
# [46] = target: Gal(a1-6)Glc
# Method in brief: as §1
# [47] = target: Gal(b1-2)Gal
# Method in brief: as §1
# [48] = target: Gal(b1-3)Gal
# Method in brief: as §1
# [49] = target: Gal(b1-3)Gal(b1-4)GlcNAc
# Method in brief: as §1
# [50] = target: Gal(b1-3)GalNAc
# Method in brief: as §1
# [51] = target: Gal(b1-3)GalNAc(a1-3)[Fuc(a1-2)]Gal(b1-4)Glc
# Method in brief: as §1
# [52] = target: Gal(b1-3)GalNAc(a1-3)[Fuc(a1-2)]Gal(b1-4)GlcNAc
# Method in brief: as §1
# [53] = target: Gal(b1-3)GalNAc(b1-3)Gal
# Method in brief: as §1
# [54] = target: Gal(b1-3)GalNAc(b1-3)Gal(a1-4)Gal(b1-4)Glc
# Method in brief: as §1
# [55] = target: Gal(b1-3)GalNAc(b1-4)Gal(b1-4)Glc
# Method in brief: as §1
# [56] = target: Gal(b1-3)GalNAc(b1-4)[Neu5Ac(a2-3)]Gal(b1-4)Glc
# Method in brief: as §1
# [57] = target: Gal(b1-3)GlcNAc
# Method in brief: as §1
# [58] = target: Gal(b1-3)GlcNAc(a1-3)Gal(b1-4)GlcNAc
# Method in brief: as §1
# [59] = target: Gal(b1-3)GlcNAc(a1-6)Gal(b1-4)GlcNAc
# Method in brief: as §1
# [60] = target: Gal(b1-3)GlcNAc(b1-2)Man
# Method in brief: as §1
binder,measurement,setting,value
"CcfD (Bacteroides vulgatus), A6KYX8 (protein) MKYKNYFKSIIYLALGAFTLGSCEDFLDRQEDEKLTFDKIWESRNTTQQYWLNAMSFLPNENGSLQGDTEPYLGASDECTIAYDRQYRWINFGTWNPSQVPYYKMDHYYKGIRECNIFLQNVYKCSDPLVTKDQLDEWYWQTRFARAYYYFLMMRDYGPVFLLGDDLLDFTASTEELYRPRNTWDQCVNYVVSEMTQCAESGVVLQQSDLPAAKWGLATVGTCHAVISRLLLYSARPLFNGNKLYSTVKNPDAPDFPELSGVKLFPELDNTKWQKAAEAAKKLIDNPCYELYRAGNDNPYEDYYGVTHETWNKELIWTDRYNGLFSWGVGTVPTGVAGTAYGAVGPTQALVDAYAMNTGWYPITGYEADGTPIVEPLSGYELASELEKSSWIYPSGGWSNKADFEIEAPNMYKDREPRFYVTVFFGGNQWLHGNSATSISFAKGGNGNKSHDYPKSGYLCNRFYDHKLNSSEGQWGNITFPVFRLGEIYLNFIEAVLECKKNGVALDPSYEALAMEKWADLRKRAGLDPITSIYGQVSTEELIQLCRKERQIELAFERHRYFDTRTWMIATQTDNGKMYGMNTSCPLDAGMKGTETPDGFWERTAFETRVFQNKHYLYPFSQRELDRNKLLTQNYGW",glycan array binding signal (z-score),[1],-0.028
same,glycan array binding signal (z-score),[2],0.42
same,glycan array binding signal (z-score),[3],-0.261
same,glycan array binding signal (z-score),[4],2.11
same,glycan array binding signal (z-score),[5],-0.49
same,glycan array binding signal (z-score),[6],0.262
same,glycan array binding signal (z-score),[7],0.018
same,glycan array binding signal (z-score),[8],-0.902
same,glycan array binding signal (z-score),[9],0.465
same,glycan array binding signal (z-score),[10],-0.617
same,glycan array binding signal (z-score),[11],-0.541
same,glycan array binding signal (z-score),[12],0.328
same,glycan array binding signal (z-score),[13],-0.592
same,glycan array binding signal (z-score),[14],0.811
same,glycan array binding signal (z-score),[15],-0.429
same,glycan array binding signal (z-score),[16],-0.581
same,glycan array binding signal (z-score),[17],0.282
same,glycan array binding signal (z-score),[18],0.724
same,glycan array binding signal (z-score),[19],-0.581
same,glycan array binding signal (z-score),[20],0.359
same,glycan array binding signal (z-score),[21],0.318
same,glycan array binding signal (z-score),[22],-0.251
same,glycan array binding signal (z-score),[23],0.343
same,glycan array binding signal (z-score),[24],-0.393
same,glycan array binding signal (z-score),[25],-1.04
same,glycan array binding signal (z-score),[26],-0.058
same,glycan array binding signal (z-score),[27],0.745
same,glycan array binding signal (z-score),[28],-0.866
same,glycan array binding signal (z-score),[29],-0.653
same,glycan array binding signal (z-score),[30],0.011
same,glycan array binding signal (z-score),[31],-0.068
same,glycan array binding signal (z-score),[32],-0.419
same,glycan array binding signal (z-score),[33],1.19
same,glycan array binding signal (z-score),[34],-0.419
same,glycan array binding signal (z-score),[35],1.08
same,glycan array binding signal (z-score),[36],0.14
same,glycan array binding signal (z-score),[37],-0.119
same,glycan array binding signal (z-score),[38],-0.633
same,glycan array binding signal (z-score),[39],-0.81
same,glycan array binding signal (z-score),[40],-0.866
same,glycan array binding signal (z-score),[41],0.425
same,glycan array binding signal (z-score),[42],-0.477
same,glycan array binding signal (z-score),[43],0.973
same,glycan array binding signal (z-score),[44],-0.795
same,glycan array binding signal (z-score),[45],0.008
same,glycan array binding signal (z-score),[46],0.166
same,glycan array binding signal (z-score),[47],-0.155
same,glycan array binding signal (z-score),[48],0.044
same,glycan array binding signal (z-score),[49],-0.78
same,glycan array binding signal (z-score),[50],0.472
same,glycan array binding signal (z-score),[51],-0.937
same,glycan array binding signal (z-score),[52],-0.343
same,glycan array binding signal (z-score),[53],-0.358
same,glycan array binding signal (z-score),[54],-0.627
same,glycan array binding signal (z-score),[55],-0.043
same,glycan array binding signal (z-score),[56],-0.317
same,glycan array binding signal (z-score),[57],0.249
same,glycan array binding signal (z-score),[58],0.567
same,glycan array binding signal (z-score),[59],-0.724
same,glycan array binding signal (z-score),[60],0.455

# Not a retest: entries from further up.
binder,measurement,setting,value
"CcfD (Bacteroides vulgatus), A6KYX8 (protein) MKYKNYFKSIIYLALGAFTLGSCEDFLDRQEDEKLTFDKIWESRNTTQQYWLNAMSFLPNENGSLQGDTEPYLGASDECTIAYDRQYRWINFGTWNPSQVPYYKMDHYYKGIRECNIFLQNVYKCSDPLVTKDQLDEWYWQTRFARAYYYFLMMRDYGPVFLLGDDLLDFTASTEELYRPRNTWDQCVNYVVSEMTQCAESGVVLQQSDLPAAKWGLATVGTCHAVISRLLLYSARPLFNGNKLYSTVKNPDAPDFPELSGVKLFPELDNTKWQKAAEAAKKLIDNPCYELYRAGNDNPYEDYYGVTHETWNKELIWTDRYNGLFSWGVGTVPTGVAGTAYGAVGPTQALVDAYAMNTGWYPITGYEADGTPIVEPLSGYELASELEKSSWIYPSGGWSNKADFEIEAPNMYKDREPRFYVTVFFGGNQWLHGNSATSISFAKGGNGNKSHDYPKSGYLCNRFYDHKLNSSEGQWGNITFPVFRLGEIYLNFIEAVLECKKNGVALDPSYEALAMEKWADLRKRAGLDPITSIYGQVSTEELIQLCRKERQIELAFERHRYFDTRTWMIATQTDNGKMYGMNTSCPLDAGMKGTETPDGFWERTAFETRVFQNKHYLYPFSQRELDRNKLLTQNYGW",glycan array binding signal (z-score),[9],0.465
same,glycan array binding signal (z-score),[10],-0.617
same,glycan array binding signal (z-score),[11],-0.541
same,glycan array binding signal (z-score),[12],0.328
same,glycan array binding signal (z-score),[13],-0.592
same,glycan array binding signal (z-score),[14],0.811
same,glycan array binding signal (z-score),[15],-0.429
same,glycan array binding signal (z-score),[16],-0.581
same,glycan array binding signal (z-score),[17],0.282
same,glycan array binding signal (z-score),[18],0.724
same,glycan array binding signal (z-score),[19],-0.581
same,glycan array binding signal (z-score),[20],0.359
same,glycan array binding signal (z-score),[21],0.318
same,glycan array binding signal (z-score),[22],-0.251
same,glycan array binding signal (z-score),[23],0.343
same,glycan array binding signal (z-score),[24],-0.393
